Experimental data: PubChem BioAssay AID1508597 (Cure First, 2020)

Purpose: 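Survival screen with siRNA in ovarian cancer cells derived from patients, with or without rucaparib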 (primary screen)
Cell system: human ovarian carcinoma lines grown from tumours: OCI-P5x (papillary serous) and OCI-C5x (clear cell)
Knock-down reagent: siRNA pool against human genes, 1.25 pmol siRNA per well
Time to read-out: 72 h or 96 h, depending on the cell culture
Challenge: rucaparib 20 µM (about IC30) or vehicle, present until read-out
Rucaparib or vehicle: Rucaparib
Cell line: OCI-C5x (clear cell)
Detection: 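Luminescent ATP-based viability assay read 72 or 96 h after transfection, depending on culture, given as normalised percent viability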
Direction: viability, normalised: higher = more viable cells remaining
Rule for the call: 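a well counts as a hit if its normalised viability is under 80 percent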
Meaning of the calls: active = viability under 80%; inactive = viability 80% or more
Shown is an unselected part of the about 2,100 reagents, under one of the conditions tested. 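Calls flag viability under 80% in either arm, not effects specific to rucaparib; the reference for percent is not stated.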 Not stated in the record: the 100% reference.

no.	gene	technical replicate	viability, normalised (%)	activity call
1	PTK2 (protein tyrosine kinase 2)	1	90.6	inactive
2	PTK2 (protein tyrosine kinase 2)	2	101	inactive
3	PTK2 (protein tyrosine kinase 2)	3	86.5	inactive
4	ORC1 (origin recognition complex subunit 1)	1	40.8	active
5	ORC1 (origin recognition complex subunit 1)	2	40.3	active
6	ORC1 (origin recognition complex subunit 1)	3	49.4	active
7	MAPK13 (mitogen-activated protein kinase 13)	1	50.4	active
8	MAPK13 (mitogen-activated protein kinase 13)	2	37.8	active
9	MAPK13 (mitogen-activated protein kinase 13)	3	49.5	active
10	AKT1 (AKT serine/threonine kinase 1)	1	49.2	active
11	AKT1 (AKT serine/threonine kinase 1)	2	48.3	active
12	AKT1 (AKT serine/threonine kinase 1)	3	49.7	active
13	NAP1L3 (nucleosome assembly protein 1 like 3)	1	49.6	active
14	NAP1L3 (nucleosome assembly protein 1 like 3)	2	38.8	active
15	NAP1L3 (nucleosome assembly protein 1 like 3)	3	49.6	active
16	TRIO (trio Rho guanine nucleotide exchange factor)	1	53.2	active
17	TRIO (trio Rho guanine nucleotide exchange factor)	2	58.8	active
18	TRIO (trio Rho guanine nucleotide exchange factor)	3	72.3	active
19	MACROH2A2 (macroH2A.2 histone)	1	39.3	active
20	MACROH2A2 (macroH2A.2 histone)	2	47.3	active
21	MACROH2A2 (macroH2A.2 histone)	3	36.8	active
22	NEK4 (NIMA related kinase 4)	1	44	active
23	NEK4 (NIMA related kinase 4)	2	45.1	active
24	NEK4 (NIMA related kinase 4)	3	40.6	active
25	PANK3 (pantothenate kinase 3)	1	41.7	active
26	PANK3 (pantothenate kinase 3)	2	59.4	active
27	PANK3 (pantothenate kinase 3)	3	47.7	active
28	XPA (XPA, DNA damage recognition and repair factor)	1	45.6	active
29	XPA (XPA, DNA damage recognition and repair factor)	2	63.4	active
30	XPA (XPA, DNA damage recognition and repair factor)	3	54	active
31	RAF1 (Raf-1 proto-oncogene, serine/threonine kinase)	1	57.5	active
32	RAF1 (Raf-1 proto-oncogene, serine/threonine kinase)	2	57	active
33	RAF1 (Raf-1 proto-oncogene, serine/threonine kinase)	3	51.7	active
34	CSNK1G1 (casein kinase 1 gamma 1)	1	37.6	active
35	CSNK1G1 (casein kinase 1 gamma 1)	2	35.7	active
36	CSNK1G1 (casein kinase 1 gamma 1)	3	42.6	active
37	GLYR1 (glyoxylate reductase 1 homolog)	1	41.4	active
38	GLYR1 (glyoxylate reductase 1 homolog)	2	27.8	active
39	GLYR1 (glyoxylate reductase 1 homolog)	3	48.7	active

In a second layout: results already given.
| gene | technical replicate | viability, normalised (%) | activity call |
| --- | --- | --- | --- |
| NEK4 (NIMA related kinase 4) | 1 | 44 | active |
| NEK4 (NIMA related kinase 4) | 2 | 45.1 | active |
| NEK4 (NIMA related kinase 4) | 3 | 40.6 | active |
